From patent US20250346673A1
These are yes or no findings as the source states them, for the method shown. Some results given as binding are weak or reduced against the parent protein; the word gives no strength.

Amino acid sequences for entries named in this document (tags omitted). Residues count along the entry.
UniProt Q8WTT0, residues 45-213: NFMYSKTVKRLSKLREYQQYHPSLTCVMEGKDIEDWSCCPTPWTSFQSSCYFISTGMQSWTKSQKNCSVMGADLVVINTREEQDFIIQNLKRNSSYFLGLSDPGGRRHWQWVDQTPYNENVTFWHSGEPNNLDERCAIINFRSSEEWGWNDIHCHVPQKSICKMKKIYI

B1: Hu033-02 (antibody, IgG1, V domains shown)
VH: EVQLVESGGGLVKPGGSLRLSCAASGFTFSSYGMSWVRQAPGKGLEWVSTISSGDSYTYYPDSVKGRFTISRDNAKNSLYLQMNSLRAEDTAVYYCARQIYYDYAYYFDFWGQGTTVTVSS
VL: DIVLTQSPASLAVSPGQRATITCRASESVSFRTSHLMHWYQQKPGQPPKLLIYGASNLESGVPARFSGSGSETDFTLTINPVEAEDTANYYCQQSIEDPPTFGGGTKVEIK
B2: Hu033-04 (antibody, IgG1, V domains shown)
VH: EVQLVESGGGLVKPGGSLRLSCAASGFTFSSYGMSWVRQAPGKGLEWVSTISSGDSYTYYPDSVKGRFTISRDNAKNSLYLQMNSLRAEDTAVYYCARQIYYDYAYYFDFWGQGTTVTVSS
VL: DIVMTQSPDSLAVSLGERATINCRASESVSFRTSHLMHWYQQKPGQPPKLLIYGASNLESGVPDRFSGSGSGTDFTLTISSLQAEDVAVYYCQQSIEDPPTFGGGTKVEIK
B3: Hu033-06 (antibody, IgG1, V domains shown)
VH: EVQLVESGGGLVKPGGSLRLSCAASGFTFSSYGMSWVRQAPGKGLEWVSTISSGDSYTYYPDSVKGRFTISRDNAKNSLYLQMNSLRAEDTAVYYCARQIYYDYAYYFDFWGQGTTVTVSS
VL: DIVLTQSPDSLAVSLGERATINCRASESVSFRTSHLMHWYQQKPGQPPKLLIYGASNLESGVPDRFSGSGSETDFTLTISPLQAEDVAVYFCQQSIEDPPTFGGGTKVEIK
B4: Hu033-08 (antibody, IgG1, V domains shown)
VH: EVQLVESGGGLVKPGGSLRLSCAASGFTFSSYGMSWVRQAPGKGLEWVSTISSGDSYTYYPDSVKGRFTISRDNAKNSLYLQMNSLRAEDTAVYYCARQIYYDYAYYFDFWGQGTTVTVSS
VL: EIVLTQSPATLSLSPGERATLSCRASESVSFRTSHLMHWYQQKPGQAPRLLIYGASNLESGIPARFSGSGSETDFTLTISRLEPEDFAVYFCQQSIEDPPTFGGGTKVEIK
B5: Hu033-10 (antibody, IgG1, V domains shown)
VH: EVQLVESGGGLVKPGGSLRLSCAASGFTFRSYGMSWVRQAPGKRLEWVSTISSGDSYTYYPDSVKGRFTISRDNAKNSLYLQMNSLRAEDTAVYYCARQIYYDYAYYFDFWGQGTTVTVSS
VL: DIVLTQSPASLAVSPGQRATITCRASESVSFRTSHLMHWYQQKPGQPPKLLIYGASNLESGVPARFSGSGSETDFTLTINPVEAEDTANYYCQQSIEDPPTFGGGTKVEIK
B6: Hu033-12 (antibody, IgG1, V domains shown)
VH: EVQLVESGGGLVKPGGSLRLSCAASGFTFRSYGMSWVRQAPGKRLEWVSTISSGDSYTYYPDSVKGRFTISRDNAKNSLYLQMNSLRAEDTAVYYCARQIYYDYAYYFDFWGQGTTVTVSS
VL: DIVMTQSPDSLAVSLGERATINCRASESVSFRTSHLMHWYQQKPGQPPKLLIYGASNLESGVPDRFSGSGSGTDFTLTISSLQAEDVAVYYCQQSIEDPPTFGGGTKVEIK
B7: Hu033-13 (antibody, IgG1, V domains shown)
VH: EVQLVESGGGLVKPGGSLRLSCAASGFTFRSYGMSWVRQAPGKRLEWVSTISSGDSYTYYPDSVKGRFTISRDNAKNSLYLQMNSLRAEDTAVYYCARQIYYDYAYYFDFWGQGTTVTVSS
VL: DIVLTQSPDSLAVSLGERATINCRASESVSFRTSHLMHWYQQKPGQPPKLLIYGASNLESGVPDRFSGSGSGTDFTLTISSLQAEDVAVYFCQQSIEDPPTFGGGTKVEIK
B8: Hu033-15 (antibody, IgG1, V domains shown)
VH: EVQLVESGGGLVKPGGSLRLSCAASGFTFRSYGMSWVRQAPGKRLEWVSTISSGDSYTYYPDSVKGRFTISRDNAKNSLYLQMNSLRAEDTAVYYCARQIYYDYAYYFDFWGQGTTVTVSS
VL: EIVLTQSPATLSLSPGERATLSCRASESVSFRTSHLMHWYQQKPGQAPRLLIYGASNLESGIPARFSGSGSGTDFTLTISRLEPEDFAVYYCQQSIEDPPTFGGGTKVEIK
B9: Hu033-16 (antibody, IgG1, V domains shown)
VH: EVQLVESGGGLVKPGGSLRLSCAASGFTFRSYGMSWVRQAPGKRLEWVSTISSGDSYTYYPDSVKGRFTISRDNAKNSLYLQMNSLRAEDTAVYYCARQIYYDYAYYFDFWGQGTTVTVSS
VL: EIVLTQSPATLSLSPGERATLSCRASESVSFRTSHLMHWYQQKPGQAPRLLIYGASNLESGIPARFSGSGSETDFTLTISRLEPEDFAVYFCQQSIEDPPTFGGGTKVEIK
B10: Hu033-23 (antibody, IgG1, V domains shown)
VH: EVQLVESGGGLVKPGGSLRLSCAASGFTFRSYGMSWVRQAPGKRLEWVSTISSGDSYTYYPDSVKGRFTISRDNAKNSLYLQMNSLKAEDTAVYYCARQIYYDYAYYFDFWGQGTTVTVSS
VL: EIVLTQSPATLSLSPGERATLSCRASESVSFRTSHLMHWYQQKPGQAPRLLIYGASNLESGIPARFSGSGSGTDFTLTISRLEPEDFAVYYCQQSIEDPPTFGGGTKVEIK

What follows are binders tested against Recombinant Human BDCA2 (human) (UniProt Q8WTT0) (assay: SPR).

binding, binds:
B1
B2
B3
B4
B5
B6
B7
B8
B9
B10
